PubChem BioAssay AID602196 – INSERM, 2012
The whole screen tested about 23,000 reagents; this is a random part of them. Of all reagents, 455 (2%) were called active. 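Active includes both protection and sensitisation; some change values fall well beyond the stated -50 to +50 range.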 The record does not give: the amount of reagent.

- Screen: 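Genes whose knock-down alters cisplatin killing of lung cancer cells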
- System: human A549 lung cancer cells
- Reagent: siRNA pair against human genes
- Duration: 48 h transfection before cisplatin; time from cisplatin to read-out not stated
- Challenge: cisplatin at a dose killing half of control-siRNA cells; exact dose and duration not given
- Read-out: 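Shift in cisplatin death relative to control siRNA, from -50 (all cells die) to +50 (no cells die); siRNAs harmful on their own scored 0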
- Direction: two-siRNA summed score (-2 to +2): higher = both siRNAs protect from cisplatin killing; -2 means both sensitise; mean protection from cisplatin (shift in death) and protection from cisplatin (shift in death), siRNA C and protection from cisplatin (shift in death), siRNA D: higher = protection from cisplatin killing
- Call rule: 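siRNAs harmful alone (LDH or WST-1) get 0; others get +1 for less and -1 for more cisplatin killing; genes are active when the two siRNAs give the same sign, summing to ±2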
- Calls: active = both siRNAs shift cisplatin killing the same way; inactive = no consistent shift, or siRNA harmful alone

| gene knocked down | PubChem SID | two-siRNA summed score (-2 to +2) | mean protection from cisplatin (shift in death) (%) | protection from cisplatin (shift in death), siRNA C (%) | protection from cisplatin (shift in death), siRNA D (%) | call |
| --- | --- | --- | --- | --- | --- | --- |
| BLOC1S1 (GeneID 2647) | SID131504462 | 0 | -5.3 | -28.2 | 17.6 | inactive |
| SRR (GeneID 63826) | SID131521958 | 1 | 15.6 | 28.9 | 2.3 | inactive |
| RIN3 (GeneID 79890) | SID131504169 | 0 | -6.3 | -7.7 | -4.9 | inactive |
| LINC01720 (GeneID 440704) | SID131519545 | 1 | 6.2 | 13.9 | -1.4 | inactive |
| RPP40 (GeneID 10799) | SID131518417 | 0 | 19.4 | 16.9 | 21.8 | inactive |
| SNX20 (GeneID 124460) | SID131512178 | 0 | 5.2 | -4 | 14.4 | inactive |
| LPO (GeneID 4025) | SID131507110 | 0 | -0.5 | -0.1 | -1 | inactive |
| RPUSD2 (GeneID 27079) | SID131501719 | -1 | -7.8 | 0.9 | -16.5 | inactive |
| BRD4 (GeneID 23476) | SID131514496 | 0 | 7.9 | -2.7 | 18.4 | inactive |
| XRN2 (GeneID 22803) | SID131517651 | 0 | 14.2 | 14.9 | 13.5 | inactive |
| GIPR (GeneID 2696) | SID131501568 | -1 | -8.9 | -2.4 | -15.5 | inactive |
| ANKRD20A11P (GeneID 391267) | SID131514450 | 0 | 7.8 | 4.3 | 11.3 | inactive |
| DUX3 (GeneID 26582) | SID131513943 | 0 | 7.2 | 3.6 | 10.8 | inactive |
| ETNK2 (GeneID 55224) | SID131508381 | 0 | 1 | 0.7 | 1.2 | inactive |
| DPM3 (GeneID 54344) | SID131521256 | 1 | 12.8 | 6.7 | 18.9 | inactive |
| CRB3 (GeneID 92359) | SID131516415 | 0 | 10.8 | 21.2 | 0.4 | inactive |
| ZNF283 (GeneID 284349) | SID131518038 | 0 | 16.1 | 16.7 | 15.5 | inactive |
| OIT3 (GeneID 170392) | SID131500770 | -1 | -16.3 | -8.1 | -24.5 | inactive |
| SHROOM3 (GeneID 57619) | SID131513355 | 0 | 6.5 | 16.5 | -3.5 | inactive |

7 consecutive entries already listed, for reference:
| gene knocked down | PubChem SID | two-siRNA summed score (-2 to +2) | mean protection from cisplatin (shift in death) (%) | protection from cisplatin (shift in death), siRNA C (%) | protection from cisplatin (shift in death), siRNA D (%) | call |
| --- | --- | --- | --- | --- | --- | --- |
| RPP40 (GeneID 10799) | SID131518417 | 0 | 19.4 | 16.9 | 21.8 | inactive |
| SNX20 (GeneID 124460) | SID131512178 | 0 | 5.2 | -4 | 14.4 | inactive |
| LPO (GeneID 4025) | SID131507110 | 0 | -0.5 | -0.1 | -1 | inactive |
| RPUSD2 (GeneID 27079) | SID131501719 | -1 | -7.8 | 0.9 | -16.5 | inactive |
| BRD4 (GeneID 23476) | SID131514496 | 0 | 7.9 | -2.7 | 18.4 | inactive |
| XRN2 (GeneID 22803) | SID131517651 | 0 | 14.2 | 14.9 | 13.5 | inactive |
| GIPR (GeneID 2696) | SID131501568 | -1 | -8.9 | -2.4 | -15.5 | inactive |

The listing continues:
| gene knocked down | PubChem SID | two-siRNA summed score (-2 to +2) | mean protection from cisplatin (shift in death) (%) | protection from cisplatin (shift in death), siRNA C (%) | protection from cisplatin (shift in death), siRNA D (%) | call |
| --- | --- | --- | --- | --- | --- | --- |
| ZNF44 (GeneID 51710) | SID131504533 | 0 | -5.1 | -8.7 | -1.6 | inactive |
| TRIM58 (GeneID 25893) | SID131508811 | 0 | 1.5 | 1 | 2 | inactive |
| ZNF606 (GeneID 80095) | SID131505257 | 0 | -3.5 | 2.1 | -9 | inactive |
| TM9SF3 (GeneID 56889) | SID131520227 | 1 | 9.1 | 14.6 | 3.7 | inactive |
| LINC03106 (GeneID 100506422) | SID131519132 | 1 | 2.8 | -6.2 | 11.8 | inactive |
| DOC2B (GeneID 8447) | SID131504918 | 0 | -4.2 | 13.3 | -21.7 | inactive |
| RPGR (GeneID 6103) | SID131504794 | 0 | -4.5 | 1 | -10 | inactive |
| ZNF638 (GeneID 27332) | SID131516191 | 0 | 10.4 | 10.1 | 10.7 | inactive |
| ZNF638 (GeneID 27332) | SID131517604 | 0 | 14 | 22.1 | 6 | inactive |
| SMIM12 (GeneID 113444) | SID131510488 | 0 | 3.3 | 2.2 | 4.4 | inactive |
| LOC345630 | SID131517761 | 0 | 14.7 | 18 | 11.4 | inactive |
| ZNF835 (GeneID 90485) | SID131517781 | 0 | 14.8 | 18.4 | 11.1 | inactive |
| SLC24A4 (GeneID 123041) | SID131513255 | 0 | 6.4 | 9 | 3.8 | inactive |
| ANKRD6 (GeneID 22881) | SID131520445 | 1 | 9.9 | 9.9 | 10 | inactive |
| ERICH3 (GeneID 127254) | SID131509920 | 0 | 2.7 | 8.6 | -3.3 | inactive |
| ADRM1 (GeneID 11047) | SID131519628 | 1 | 6.7 | 5.6 | 7.8 | inactive |
| RPAIN (GeneID 84268) | SID131517395 | 0 | 13.3 | 5.2 | 21.3 | inactive |
| CSTB (GeneID 1476) | SID131521487 | 1 | 13.7 | 24.1 | 3.3 | inactive |
| PLXNA3 (GeneID 55558) | SID131509840 | 0 | 2.6 | -3 | 8.1 | inactive |
| LOC399959 | SID131512845 | 0 | 5.9 | 5.6 | 6.2 | inactive |
| PPP4R4 (GeneID 57718) | SID131501547 | -1 | -9.1 | -13.3 | -4.8 | inactive |
| RFWD3 (GeneID 55159) | SID131506080 | 0 | -2.1 | -4.6 | 0.5 | inactive |
| LOC441617 | SID131518642 | 0 | 23.1 | 23.3 | 23 | inactive |
| CREM (GeneID 1390) | SID131500391 | -2 | -15.6 | -12 | -19.1 | active |
| SNHG32 (GeneID 50854) | SID131515621 | 0 | 9.4 | 10.4 | 8.5 | inactive |
| PSG3 (GeneID 5671) | SID131512150 | 0 | 5.2 | 5.6 | 4.7 | inactive |
| LDLR (GeneID 3949) | SID131502026 | -1 | -5.8 | 5.4 | -17 | inactive |
| LOC441382 | SID131518273 | 0 | 17.8 | 8.1 | 27.5 | inactive |
| RWDD2A (GeneID 112611) | SID131504255 | 0 | -6 | -6.1 | -5.8 | inactive |
| LOC440008 | SID131518504 | 0 | 20.6 | 9.1 | 32.2 | inactive |
| LINC01554 (GeneID 202299) | SID131511806 | 0 | 4.8 | 0.6 | 9 | inactive |
| LOC347424 | SID131504364 | 0 | -5.6 | -2.4 | -8.8 | inactive |
| SLC5A5 (GeneID 6528) | SID131522424 | 1 | 18.4 | 17.3 | 19.6 | inactive |
| LOC442434 | SID131517530 | 0 | 13.7 | 11.8 | 15.7 | inactive |
| CIAO2AP2 (GeneID 391174) | SID131518354 | 0 | 18.6 | 9.3 | 27.9 | inactive |
| PRR23C (GeneID 389152) | SID131515908 | 0 | 9.9 | 11.2 | 8.6 | inactive |
| DXO (GeneID 1797) | SID131516589 | 0 | 11.1 | -10.4 | 32.7 | inactive |
| TMPRSS11A (GeneID 339967) | SID131507931 | 0 | 0.4 | 7.6 | -6.8 | inactive |
